In the supplement of paper PMC12823440, “Inhibitors supercharge kinase turnover through native proteolytic circuits” (Nature, 2025):
Some of the results follow. The calls rarely recur for the same compound in another form.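 Kinases were expressed as nanoluciferase fusions in K562 cells and luminescence was read every 4 h between 2 and 18 h as percent of control, DMSO set to 100% and a positive control to 0%. A time point counts as decreased when the signal drops significantly (2 sigma). The hit call is the authors' own, does not follow from the count of time points alone, and its rule is not shown.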

By UniProt entry, the sequences of proteins in these tests, tags left out. Where a name states a change or a piece, a line headed by the entry shows the natural chain unless it says otherwise.
UniProt Q8IWU2: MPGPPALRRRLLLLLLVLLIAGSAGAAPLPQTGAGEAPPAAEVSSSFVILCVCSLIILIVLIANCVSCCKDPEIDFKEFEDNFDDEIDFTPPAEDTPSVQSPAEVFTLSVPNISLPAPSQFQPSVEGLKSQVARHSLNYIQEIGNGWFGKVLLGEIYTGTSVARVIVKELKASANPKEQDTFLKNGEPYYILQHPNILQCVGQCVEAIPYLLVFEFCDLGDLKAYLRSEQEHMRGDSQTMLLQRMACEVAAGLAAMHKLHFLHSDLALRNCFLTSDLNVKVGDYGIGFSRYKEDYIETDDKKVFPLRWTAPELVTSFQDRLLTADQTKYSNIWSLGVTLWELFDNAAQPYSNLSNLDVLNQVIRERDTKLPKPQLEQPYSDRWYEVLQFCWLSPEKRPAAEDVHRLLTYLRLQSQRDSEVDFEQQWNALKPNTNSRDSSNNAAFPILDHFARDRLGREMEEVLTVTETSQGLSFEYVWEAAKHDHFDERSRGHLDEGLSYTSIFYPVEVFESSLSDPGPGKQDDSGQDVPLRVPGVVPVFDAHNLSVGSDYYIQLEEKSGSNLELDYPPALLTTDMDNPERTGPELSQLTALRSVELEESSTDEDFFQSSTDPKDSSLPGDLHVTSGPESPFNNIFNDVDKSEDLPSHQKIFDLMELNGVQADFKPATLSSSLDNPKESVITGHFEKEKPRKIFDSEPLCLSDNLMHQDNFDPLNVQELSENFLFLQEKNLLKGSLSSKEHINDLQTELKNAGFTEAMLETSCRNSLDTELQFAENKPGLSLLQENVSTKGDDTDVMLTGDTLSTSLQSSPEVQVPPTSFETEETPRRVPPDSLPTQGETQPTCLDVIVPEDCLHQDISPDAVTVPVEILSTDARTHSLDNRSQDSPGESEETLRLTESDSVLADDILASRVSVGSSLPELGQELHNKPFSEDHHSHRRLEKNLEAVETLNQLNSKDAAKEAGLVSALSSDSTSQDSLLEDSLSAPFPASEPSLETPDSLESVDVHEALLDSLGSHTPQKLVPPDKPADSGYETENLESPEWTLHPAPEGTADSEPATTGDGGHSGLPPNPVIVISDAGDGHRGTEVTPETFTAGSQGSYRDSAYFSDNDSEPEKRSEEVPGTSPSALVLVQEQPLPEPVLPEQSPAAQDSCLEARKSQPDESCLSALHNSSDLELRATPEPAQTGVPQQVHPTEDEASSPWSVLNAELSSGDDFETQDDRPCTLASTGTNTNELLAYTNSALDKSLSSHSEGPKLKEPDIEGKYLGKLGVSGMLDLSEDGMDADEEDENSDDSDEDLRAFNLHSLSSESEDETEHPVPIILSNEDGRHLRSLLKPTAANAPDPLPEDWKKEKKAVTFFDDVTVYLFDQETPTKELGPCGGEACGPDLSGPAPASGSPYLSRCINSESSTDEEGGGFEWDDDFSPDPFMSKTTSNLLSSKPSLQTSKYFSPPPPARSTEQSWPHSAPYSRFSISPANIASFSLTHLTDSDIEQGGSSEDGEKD
UniProt P28482, whole entry: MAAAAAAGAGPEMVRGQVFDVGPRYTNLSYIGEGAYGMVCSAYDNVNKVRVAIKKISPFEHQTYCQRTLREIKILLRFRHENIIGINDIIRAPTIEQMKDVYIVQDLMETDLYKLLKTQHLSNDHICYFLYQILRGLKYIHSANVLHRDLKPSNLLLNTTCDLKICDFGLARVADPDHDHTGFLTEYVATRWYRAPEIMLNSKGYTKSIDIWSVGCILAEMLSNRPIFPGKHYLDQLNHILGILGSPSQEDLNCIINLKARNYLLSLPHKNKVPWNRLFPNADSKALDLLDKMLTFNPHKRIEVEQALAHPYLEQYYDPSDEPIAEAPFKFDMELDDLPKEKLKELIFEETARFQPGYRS
UniProt Q9BUB5: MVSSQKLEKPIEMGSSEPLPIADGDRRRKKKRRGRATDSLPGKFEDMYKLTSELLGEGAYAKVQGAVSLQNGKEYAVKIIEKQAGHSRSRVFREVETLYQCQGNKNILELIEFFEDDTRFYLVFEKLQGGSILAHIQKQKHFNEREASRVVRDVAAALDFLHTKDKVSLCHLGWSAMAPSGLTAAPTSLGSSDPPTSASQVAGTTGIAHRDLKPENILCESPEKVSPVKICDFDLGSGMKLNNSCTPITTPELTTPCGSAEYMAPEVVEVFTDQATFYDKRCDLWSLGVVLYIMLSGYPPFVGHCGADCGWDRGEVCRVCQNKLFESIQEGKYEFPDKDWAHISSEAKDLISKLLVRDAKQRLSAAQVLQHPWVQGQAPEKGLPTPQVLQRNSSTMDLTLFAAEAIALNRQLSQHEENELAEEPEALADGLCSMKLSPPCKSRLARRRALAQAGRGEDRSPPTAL
UniProt Q96KB5: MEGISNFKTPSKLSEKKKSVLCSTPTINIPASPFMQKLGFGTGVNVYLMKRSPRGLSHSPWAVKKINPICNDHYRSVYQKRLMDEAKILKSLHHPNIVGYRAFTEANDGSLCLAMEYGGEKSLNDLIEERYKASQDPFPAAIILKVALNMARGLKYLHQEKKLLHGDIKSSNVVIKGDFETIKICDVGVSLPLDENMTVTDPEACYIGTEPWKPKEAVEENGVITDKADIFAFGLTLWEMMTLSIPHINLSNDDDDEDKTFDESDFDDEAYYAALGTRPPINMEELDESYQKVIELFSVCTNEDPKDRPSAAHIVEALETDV
UniProt P09619, whole entry: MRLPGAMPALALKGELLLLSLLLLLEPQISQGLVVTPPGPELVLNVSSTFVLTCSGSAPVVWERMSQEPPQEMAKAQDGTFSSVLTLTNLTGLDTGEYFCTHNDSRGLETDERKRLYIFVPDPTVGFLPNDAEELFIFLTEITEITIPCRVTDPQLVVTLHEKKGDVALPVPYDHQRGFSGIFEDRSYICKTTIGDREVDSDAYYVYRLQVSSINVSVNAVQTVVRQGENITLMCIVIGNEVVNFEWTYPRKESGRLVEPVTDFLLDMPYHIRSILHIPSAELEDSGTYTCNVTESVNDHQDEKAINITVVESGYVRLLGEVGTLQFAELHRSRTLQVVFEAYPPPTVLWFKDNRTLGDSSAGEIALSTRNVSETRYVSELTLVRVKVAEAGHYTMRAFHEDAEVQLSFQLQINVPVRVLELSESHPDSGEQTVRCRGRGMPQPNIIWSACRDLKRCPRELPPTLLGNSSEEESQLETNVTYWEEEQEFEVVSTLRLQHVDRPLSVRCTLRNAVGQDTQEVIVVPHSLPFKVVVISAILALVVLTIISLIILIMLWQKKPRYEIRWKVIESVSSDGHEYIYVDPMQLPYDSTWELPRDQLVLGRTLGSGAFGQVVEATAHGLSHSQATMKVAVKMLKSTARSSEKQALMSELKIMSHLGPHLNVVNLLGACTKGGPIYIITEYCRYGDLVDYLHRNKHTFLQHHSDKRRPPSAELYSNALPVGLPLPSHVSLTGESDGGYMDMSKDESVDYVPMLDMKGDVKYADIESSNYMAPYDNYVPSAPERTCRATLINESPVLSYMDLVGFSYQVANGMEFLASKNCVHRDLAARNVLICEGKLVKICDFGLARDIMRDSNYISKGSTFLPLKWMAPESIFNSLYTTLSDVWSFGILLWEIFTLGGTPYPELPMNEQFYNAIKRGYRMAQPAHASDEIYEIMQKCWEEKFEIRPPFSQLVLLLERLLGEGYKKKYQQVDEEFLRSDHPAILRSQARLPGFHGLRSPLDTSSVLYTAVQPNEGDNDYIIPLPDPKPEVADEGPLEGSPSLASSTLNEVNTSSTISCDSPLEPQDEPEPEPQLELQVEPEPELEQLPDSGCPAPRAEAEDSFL
UniProt O15530: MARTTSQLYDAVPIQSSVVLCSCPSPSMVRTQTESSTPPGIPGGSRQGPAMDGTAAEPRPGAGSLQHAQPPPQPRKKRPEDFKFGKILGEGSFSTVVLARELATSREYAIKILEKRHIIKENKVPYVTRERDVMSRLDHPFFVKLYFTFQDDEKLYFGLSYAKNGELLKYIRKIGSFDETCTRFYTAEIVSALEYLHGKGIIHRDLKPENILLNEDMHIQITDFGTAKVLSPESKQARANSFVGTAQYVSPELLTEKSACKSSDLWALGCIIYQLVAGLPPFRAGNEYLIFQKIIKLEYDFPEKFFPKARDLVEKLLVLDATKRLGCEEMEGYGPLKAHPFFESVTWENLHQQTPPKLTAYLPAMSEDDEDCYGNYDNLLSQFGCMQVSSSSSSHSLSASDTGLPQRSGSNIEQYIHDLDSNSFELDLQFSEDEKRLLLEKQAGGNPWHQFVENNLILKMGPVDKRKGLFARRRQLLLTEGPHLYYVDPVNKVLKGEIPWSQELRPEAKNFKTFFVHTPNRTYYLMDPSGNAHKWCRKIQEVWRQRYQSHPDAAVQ
UniProt Q9UBF8: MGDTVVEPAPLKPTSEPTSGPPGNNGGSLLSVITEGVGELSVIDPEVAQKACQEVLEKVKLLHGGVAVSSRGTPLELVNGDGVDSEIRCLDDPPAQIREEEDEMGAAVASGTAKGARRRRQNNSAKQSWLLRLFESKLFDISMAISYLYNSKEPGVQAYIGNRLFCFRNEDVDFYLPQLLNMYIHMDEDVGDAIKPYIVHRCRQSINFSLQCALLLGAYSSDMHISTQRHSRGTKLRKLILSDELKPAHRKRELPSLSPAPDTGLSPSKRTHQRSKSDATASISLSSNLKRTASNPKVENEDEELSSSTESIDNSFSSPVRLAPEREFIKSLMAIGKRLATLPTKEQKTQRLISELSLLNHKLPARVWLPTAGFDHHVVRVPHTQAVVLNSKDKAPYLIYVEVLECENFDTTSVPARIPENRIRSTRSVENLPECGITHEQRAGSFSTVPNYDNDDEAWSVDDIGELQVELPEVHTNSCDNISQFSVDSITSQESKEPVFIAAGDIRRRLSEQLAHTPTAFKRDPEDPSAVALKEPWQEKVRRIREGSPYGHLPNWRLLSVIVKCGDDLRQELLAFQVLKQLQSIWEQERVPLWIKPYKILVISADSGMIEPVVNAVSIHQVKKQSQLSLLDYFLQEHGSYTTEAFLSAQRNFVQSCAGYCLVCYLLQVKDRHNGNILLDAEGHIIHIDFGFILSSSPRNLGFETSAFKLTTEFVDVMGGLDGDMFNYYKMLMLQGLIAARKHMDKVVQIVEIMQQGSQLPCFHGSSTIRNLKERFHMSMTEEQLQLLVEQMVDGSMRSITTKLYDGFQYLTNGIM
UniProt P53350, whole entry: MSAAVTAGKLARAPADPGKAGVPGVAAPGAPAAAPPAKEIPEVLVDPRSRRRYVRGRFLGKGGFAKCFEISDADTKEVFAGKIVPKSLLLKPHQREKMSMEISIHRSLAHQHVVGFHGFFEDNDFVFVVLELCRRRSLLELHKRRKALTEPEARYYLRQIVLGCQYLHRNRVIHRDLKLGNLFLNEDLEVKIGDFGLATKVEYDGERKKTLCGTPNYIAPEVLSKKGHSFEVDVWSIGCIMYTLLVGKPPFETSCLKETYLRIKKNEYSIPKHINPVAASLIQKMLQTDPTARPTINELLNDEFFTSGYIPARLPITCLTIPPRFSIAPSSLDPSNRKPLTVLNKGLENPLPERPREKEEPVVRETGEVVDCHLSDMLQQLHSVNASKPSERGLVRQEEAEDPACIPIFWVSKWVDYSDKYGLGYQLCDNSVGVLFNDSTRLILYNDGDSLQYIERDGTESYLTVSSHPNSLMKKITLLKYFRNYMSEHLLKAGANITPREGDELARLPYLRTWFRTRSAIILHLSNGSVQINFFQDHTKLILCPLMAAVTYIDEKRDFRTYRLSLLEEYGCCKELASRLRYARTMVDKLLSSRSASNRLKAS
UniProt Q16620, whole entry, looked up: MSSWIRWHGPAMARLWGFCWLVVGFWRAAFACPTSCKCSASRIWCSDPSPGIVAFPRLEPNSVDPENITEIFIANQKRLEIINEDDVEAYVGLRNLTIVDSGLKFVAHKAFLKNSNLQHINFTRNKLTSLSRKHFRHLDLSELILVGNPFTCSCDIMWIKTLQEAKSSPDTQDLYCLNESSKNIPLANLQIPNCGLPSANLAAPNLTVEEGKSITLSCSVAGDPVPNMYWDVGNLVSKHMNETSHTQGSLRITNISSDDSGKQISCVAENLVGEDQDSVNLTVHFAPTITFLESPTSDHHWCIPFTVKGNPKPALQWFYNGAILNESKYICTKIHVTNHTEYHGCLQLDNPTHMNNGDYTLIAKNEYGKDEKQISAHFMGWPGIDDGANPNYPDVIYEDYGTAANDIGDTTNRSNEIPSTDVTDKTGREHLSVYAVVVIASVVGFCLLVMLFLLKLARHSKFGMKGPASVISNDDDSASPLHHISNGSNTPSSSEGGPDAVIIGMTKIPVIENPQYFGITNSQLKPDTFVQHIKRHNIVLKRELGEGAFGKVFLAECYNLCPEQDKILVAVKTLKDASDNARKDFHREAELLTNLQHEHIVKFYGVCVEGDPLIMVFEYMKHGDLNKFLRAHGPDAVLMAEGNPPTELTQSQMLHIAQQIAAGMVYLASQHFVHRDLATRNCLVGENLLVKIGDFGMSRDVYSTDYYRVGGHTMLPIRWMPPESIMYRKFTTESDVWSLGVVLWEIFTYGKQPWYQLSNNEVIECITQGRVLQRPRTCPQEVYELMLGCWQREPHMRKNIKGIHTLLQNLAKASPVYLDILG

Key:
Test in all cases: number of time points (of 5) at which kinase-Nluc abundance scored as decreased, DMSO-normalised (count); higher = more persistent destabilization
Settings in all cases: K562; 2-18 h
[1] = molecular target: LMTK2 (UniProt Q8IWU2)
[2] = molecular target: LYN (UniProt P07948)
[3] = molecular target: MAP2K1 (UniProt Q02750)
[4] = molecular target: MAP2K2 (UniProt P36507)
[5] = molecular target: MAP4K2 (UniProt Q12851)
[6] = molecular target: MAPK1 (UniProt P28482)
[7] = molecular target: MAPK4 (UniProt P31152)
[8] = molecular target: MAPKAPK2 (UniProt P49137)
[9] = molecular target: MKNK1 (UniProt Q9BUB5)
[10] = molecular target: NTRK3 (UniProt Q16288)
[11] = molecular target: PAK4 (UniProt O96013)
[12] = molecular target: PBK (UniProt Q96KB5)
[13] = molecular target: PDGFRB (UniProt P09619)
[14] = molecular target: PDK1 (UniProt Q15118)
[15] = molecular target: PDPK1 (UniProt O15530)
[16] = molecular target: PIK4CA (UniProt P42356)
[17] = molecular target: PIK4CB (UniProt Q9UBF8)
[18] = molecular target: PLK1 (UniProt P53350)
[19] = molecular target: PRKAA1 (UniProt Q13131)
[20] = molecular target: NTRK2 (UniProt Q16620)

Measured: number of time points

CC(=O)O[C@@H]1[C@@H](OC(C)=O)[C@@H](O)[C@H](Oc2c(-c3ccc(O)cc3)oc3cc(O)cc(O)c3c2=O)O[C@H]1C (10 µM)
not listed: [20]
0: all other assays above

Cc1cnc(Cl)nc1-c1ccc(N(Cc2ccc(CNC(=O)C(F)F)cc2)C(=O)c2ccc(O)cc2O)cc1 (10 µM)
not listed: [20]
0: all other assays above

CN(C)CCn1cc2cc(NC(=O)c3cccc(C(F)(F)F)n3)c(C(C)(C)O)cc2n1 (10 µM)
not listed: [20]
0: all other assays above

Cn1cc(C2=C(c3ccc(Cl)cc3Cl)C(=O)NC2=O)c2ccccc21 (10 µM)
not listed: [20]
0: all other assays above

COc1cc2c(cc1OC)[C@@H]1C(=O)c3ccc4c(c3O[C@@H]1CO2)C=CC(C)(C)O4 [Deguelin] (10 µM)
1: [1]
not listed: [20]
0: all other assays above

N#CC(=C(/N)Sc1ccccc1N)/C(C#N)=C(\N)Sc1ccccc1N (10 µM)
4: [15]
not listed: [20]
0: all other assays above

Nc1ccc(O)c(C(=O)O)c1 [5-Aminosalicylic Acid] (10 µM)
not listed: [20]
0: all other assays above

O=C(NC[C@H](O)CO)c1ccncc1Nc1ccc(I)cc1F [Pimasertib] (10 µM)
2: [17]
1: [15]
not listed: [3]
0: all other assays above

O=C(COc1ccc(Cl)cc1)NC1CCC(NC(=O)COc2ccc(Cl)cc2)CC1 (stereo not drawn) [ISRIB (trans-isomer)] (10 µM)
not listed: [20]
0: all other assays above

CCC(F)(F)c1cc(N2CCC(S(C)(=O)=O)CC2)nc2sc(C(N)=O)c(N)c12 (10 µM)
not listed: [20]
0: all other assays above

Cn1cnc2c(F)c(Nc3ccc(Br)cc3F)c(C(=O)NOCCO)cc21 [Binimetinib] (10 µM)
4: [15]
not listed: [20]
0: all other assays above

CC(C)(Oc1ccc(Cl)cc1)C(=O)Nc1ccc(OCc2ccc(C#N)cc2)cc1 [AMPK activator 4] (10 µM)
not listed: [20]
0: all other assays above

Cc1ncsc1-c1ccc(CNC(=O)[C@@H]2C[C@@H](O)CN2C(=O)[C@@H](NC(=O)COCCOc2ccc(-c3cc(Nc4ccc(OC(F)(F)F)cc4)ncn3)cc2)C(C)(C)C)cc1 (2.5 µM)
2: [9] | [15] | [16] | [18]
1: [1] | [7] | [10] | [19]
3: [17]
not listed: [20]
0: all other assays above

C=CC(=O)Nc1cccc(Oc2nc(Nc3ccc(N4CCN(C)CC4)cc3OC)ncc2Cl)c1 (10 µM)
not listed: [20]
0: all other assays above

COc1cccc(-c2cc(=O)c3ccccc3o2)c1N (10 µM)
not listed: [20]
0: all other assays above

Cc1cnc(Nc2ccc(F)cc2Cl)nc1-c1c[nH]c(C(=O)N[C@H](CO)c2cccc(Cl)c2)c1 (10 µM)
not listed: [6]
0: all other assays above

Nc1[nH]nc2nnc(-c3c(-c4ccccc4)nn4ccccc34)cc12 (10 µM)
not listed: [6]
0: all other assays above
